PubChem BioAssay AID743121, NCATS | 2013
This is an unselected part of about 26,000 deposited reagents. Over the whole deposit, 167 (0.63%) were called active. 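Calls are per gene from RSA p-values that are not deposited; an individual active-marked siRNA can sensitise only weakly.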 Unmarked entries are inactive. The numbers tell different reagents against one gene apart. Reagent sequences are not shown.

Test: 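Genes whose silencing strengthens cell killing by camptothecin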 (primary screen)
System: MDA-MB-231 cells, a human breast cancer line
Reagent: single siRNA against human genes, 20 nM siRNA (0.8 pmol per well)
Duration: 120 h (drug added 48 h after transfection, read 72 h later)
Treatment: camptothecin 20 nM (about EC30) for 72 h; vehicle 0.1% DMSO in parallel plates
Measured: 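Cell viability by ATP luminescence (CellTiter-Glo) as % of non-targeting siRNA wells, and the log2 ratio of viability without drug over viability with camptothecin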
Direction: log2 vehicle/camptothecin viability: higher = stronger sensitisation to camptothecin; viability with camptothecin and viability without drug: higher = more viable cells
Call rule: 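Active genes have an RSA gene-level p-value below 0.001, computed from the ratios of their separate siRNAs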

| gene knocked down | reagent | log2 vehicle/camptothecin viability | viability with camptothecin (% of control) | viability without drug (% of control) |
| --- | --- | --- | --- | --- |
| PRKY (protein kinase Y-linked (pseudogene)) | 1 | -0.658 | 81.9 | 51.9 |
| PRKY (protein kinase Y-linked (pseudogene)) | 2 | -0.133 | 49.7 | 45.4 |
| PRKY (protein kinase Y-linked (pseudogene)) | 3 | -0.183 | 91.4 | 80.5 |
| PRKY (protein kinase Y-linked (pseudogene)) | 4 | -0.298 | 101 | 82.3 |
| KIF18A (kinesin family member 18A) | 1 | -0.36 | 28.1 | 21.9 |
| KIF18A (kinesin family member 18A) | 2 | -0.427 | 27.9 | 20.8 |
| KIF18A (kinesin family member 18A) | 3 | -0.0537 | 56.5 | 54.5 |
| KIF18A (kinesin family member 18A) | 4 | 0.1 | 58.8 | 63 |
| COX10 | 1 | -0.0794 | 90.1 | 85.3 |
| COX10 | 2 | -0.134 | 115 | 105 |
| COX10 | 3 | -0.0549 | 92.8 | 89.3 |
| COX10 | 4 | -0.433 | 62.6 | 46.4 |
| PDGFRB (platelet derived growth factor receptor beta) | 1 | -0.127 | 93.1 | 85.3 |
| PDGFRB (platelet derived growth factor receptor beta) | 2 | 0.063 | 60.2 | 62.9 |
| PDGFRB (platelet derived growth factor receptor beta) | 3 | -0.494 | 43.6 | 31 |
| PDGFRB (platelet derived growth factor receptor beta) | 4 | -0.244 | 109 | 92.2 |
| ITPR2 (inositol 1,4,5-trisphosphate receptor type 2) | 1 | -0.158 | 118 | 106 |
| ITPR2 (inositol 1,4,5-trisphosphate receptor type 2) | 2 | -0.12 | 115 | 106 |
| ITPR2 (inositol 1,4,5-trisphosphate receptor type 2) | 3 | -0.337 | 56.7 | 44.9 |
| ITPR2 (inositol 1,4,5-trisphosphate receptor type 2) | 4 | -0.233 | 88.2 | 75.1 |
| UNC119 (unc-119 lipid binding chaperone) | 1 | 0.473 | 48.1 | 66.8 |
| UNC119 (unc-119 lipid binding chaperone) | 2 | -0.284 | 95.6 | 78.5 |
| UNC119 (unc-119 lipid binding chaperone) | 3 | -0.469 | 69 | 49.9 |
| IL6 (interleukin 6) | 1 | 0.137 | 79.8 | 87.7 |
| IL6 (interleukin 6) | 2 | -0.0998 | 93.6 | 87.3 |
| IL6 (interleukin 6) | 3 | -0.294 | 70 | 57.1 |
| IL6 (interleukin 6) | 4 | -0.279 | 53.8 | 44.3 |
| NF1 (neurofibromin 1) | 1 | -0.392 | 67.4 | 51.4 |
| NF1 (neurofibromin 1) | 2 | -0.495 | 116 | 82.4 |
| NF1 (neurofibromin 1) | 3 | 0.4 | 42 | 55.4 |
| NF1 (neurofibromin 1) | 4 | -0.0127 | 66.4 | 65.8 |
| PTK6 (protein tyrosine kinase 6) | 1 | -0.247 | 120 | 101 |
| PTK6 (protein tyrosine kinase 6) | 2 | -0.7 | 51.4 | 31.7 |
| PTK6 (protein tyrosine kinase 6) | 3 | -0.375 | 57.1 | 44 |
| PTK6 (protein tyrosine kinase 6) | 4 | -0.0273 | 79.8 | 78.3 |
| BST2 (bone marrow stromal cell antigen 2) | 1 | -0.226 | 37.2 | 31.8 |
| BST2 (bone marrow stromal cell antigen 2) | 2 | 0.286 | 53.4 | 65.1 |
| BST2 (bone marrow stromal cell antigen 2) | 3 | 0.766 | 34.2 | 58.2 |
| BST2 (bone marrow stromal cell antigen 2) | 4 | -0.34 | 31.3 | 24.7 |
| CCNE1 (cyclin E1) | 1 | -0.0403 | 89.1 | 86.7 |
| CCNE1 (cyclin E1) | 2 | -0.26 | 96.9 | 80.9 |
| CCNE1 (cyclin E1) | 3 | 0.137 | 86.5 | 95.2 |
| EXT1 (exostosin glycosyltransferase 1) | 1 | -0.0344 | 54.7 | 53.5 |
| EXT1 (exostosin glycosyltransferase 1) | 2 | -0.118 | 106 | 98.1 |
| EXT1 (exostosin glycosyltransferase 1) | 3 | -0.513 | 83.7 | 58.6 |
| EXT1 (exostosin glycosyltransferase 1) | 4 | 0.0958 | 112 | 120 |
| PRKX (protein kinase cAMP-dependent X-linked catalytic subunit) | 1 | -0.221 | 78.6 | 67.4 |
| PRKX (protein kinase cAMP-dependent X-linked catalytic subunit) | 2 | -0.159 | 19.3 | 17.3 |
| PRKX (protein kinase cAMP-dependent X-linked catalytic subunit) | 3 | -0.175 | 106 | 93.5 |
| PRKX (protein kinase cAMP-dependent X-linked catalytic subunit) | 4 | -0.198 | 107 | 93.2 |
| ITGA8 (integrin subunit alpha 8) | 1 | -0.381 | 68.5 | 52.6 |
| ITGA8 (integrin subunit alpha 8) | 2 | -0.0201 | 57.2 | 56.4 |
| ITGA8 (integrin subunit alpha 8) | 3 | -0.532 | 79.5 | 55 |
| ITGA8 (integrin subunit alpha 8) | 4 | -0.0868 | 57 | 53.7 |
| MAP3K13 (mitogen-activated protein kinase kinase kinase 13) | 1 | -0.0726 | 35.3 | 33.5 |
| MAP3K13 (mitogen-activated protein kinase kinase kinase 13) | 2 | 0.31 | 55.7 | 69.1 |
| MAP3K13 (mitogen-activated protein kinase kinase kinase 13) | 3 | -0.198 | 17.4 | 15.2 |
| MAP3K13 (mitogen-activated protein kinase kinase kinase 13) | 4 | -0.361 | 61.5 | 47.9 |
| DCLK2 (doublecortin like kinase 2) | 1 | -0.262 | 115 | 95.5 |
| DCLK2 (doublecortin like kinase 2) | 2 | 0.69 | 21.4 | 34.5 |
| DCLK2 (doublecortin like kinase 2) | 3 | -0.608 | 37.5 | 24.6 |
| DCLK2 (doublecortin like kinase 2) | 4 | 0.0226 | 52.4 | 53.2 |
| AAK1 (AP2 associated kinase 1) | 1 | -0.381 | 64.7 | 49.7 |
| AAK1 (AP2 associated kinase 1) | 2 | -0.309 | 112 | 90 |
| AAK1 (AP2 associated kinase 1) | 3 | -0.177 | 75.5 | 66.7 |
| AAK1 (AP2 associated kinase 1) | 4 | -0.598 | 123 | 81.1 |
| TOM1 (target of myb1 membrane trafficking protein) | 1 | -0.152 | 114 | 102 |
| TOM1 (target of myb1 membrane trafficking protein) | 2 | 0.0866 | 72.9 | 77.4 |
| TOM1 (target of myb1 membrane trafficking protein) | 3 | 0.149 | 77.6 | 86 |
| TOM1 (target of myb1 membrane trafficking protein) | 4 | -0.332 | 153 | 121 |
| TRIM47 (tripartite motif containing 47) | 1 | -0.283 | 109 | 89.9 |
| TRIM47 (tripartite motif containing 47) | 2 | -0.0963 | 50.3 | 47.1 |
| TRIM47 (tripartite motif containing 47) | 3 | -0.49 | 67.5 | 48.1 |
| TRIM47 (tripartite motif containing 47) | 4 | 0.0535 | 69.5 | 72.2 |
| ELP1 (elongator acetyltransferase complex subunit 1) | 1 | 0.205 | 71.3 | 82.1 |
| ELP1 (elongator acetyltransferase complex subunit 1) | 2 | -0.319 | 75.6 | 60.6 |
| ELP1 (elongator acetyltransferase complex subunit 1) | 3 | -0.134 | 98.9 | 90.1 |
| ELP1 (elongator acetyltransferase complex subunit 1) | 4 | -0.439 | 94.3 | 69.6 |
| PPP2R2B (protein phosphatase 2 regulatory subunit Bbeta) | 1 | -0.372 | 95.9 | 74.1 |
| PPP2R2B (protein phosphatase 2 regulatory subunit Bbeta) | 2 | -0.26 | 110 | 91.8 |
| PPP2R2B (protein phosphatase 2 regulatory subunit Bbeta) | 3 | -0.384 | 75.3 | 57.7 |
| PPP2R2B (protein phosphatase 2 regulatory subunit Bbeta) | 4 | 0.176 | 46.1 | 52.1 |
| BCHE (butyrylcholinesterase) | 1 | -0.124 | 111 | 102 |
| BCHE (butyrylcholinesterase) | 2 | -0.391 | 90.8 | 69.2 |
| BCHE (butyrylcholinesterase) | 3 | -0.0573 | 109 | 105 |
| BCHE (butyrylcholinesterase) | 4 | -0.295 | 99.6 | 81.2 |
| NME3 (NME/NM23 nucleoside diphosphate kinase 3) | 1 | -0.359 | 82.6 | 64.4 |
| NME3 (NME/NM23 nucleoside diphosphate kinase 3) | 2 | -0.0994 | 78.6 | 73.4 |
| NME3 (NME/NM23 nucleoside diphosphate kinase 3) | 3 | -0.00965 | 35.4 | 35.1 |
| NME3 (NME/NM23 nucleoside diphosphate kinase 3) | 4 | 0.165 | 20.5 | 22.9 |

Records above whose gene name begins with I or i:
| gene knocked down | reagent | log2 vehicle/camptothecin viability | viability with camptothecin (% of control) | viability without drug (% of control) |
| --- | --- | --- | --- | --- |
| ITPR2 (inositol 1,4,5-trisphosphate receptor type 2) | 1 | -0.158 | 118 | 106 |
| ITPR2 (inositol 1,4,5-trisphosphate receptor type 2) | 2 | -0.12 | 115 | 106 |
| ITPR2 (inositol 1,4,5-trisphosphate receptor type 2) | 3 | -0.337 | 56.7 | 44.9 |
| ITPR2 (inositol 1,4,5-trisphosphate receptor type 2) | 4 | -0.233 | 88.2 | 75.1 |
| IL6 (interleukin 6) | 1 | 0.137 | 79.8 | 87.7 |
| IL6 (interleukin 6) | 2 | -0.0998 | 93.6 | 87.3 |
| IL6 (interleukin 6) | 3 | -0.294 | 70 | 57.1 |
| IL6 (interleukin 6) | 4 | -0.279 | 53.8 | 44.3 |
| ITGA8 (integrin subunit alpha 8) | 1 | -0.381 | 68.5 | 52.6 |
| ITGA8 (integrin subunit alpha 8) | 2 | -0.0201 | 57.2 | 56.4 |
| ITGA8 (integrin subunit alpha 8) | 3 | -0.532 | 79.5 | 55 |
| ITGA8 (integrin subunit alpha 8) | 4 | -0.0868 | 57 | 53.7 |
